Experimental data taken from the supplement of paper PMC6411743.
± gives the standard deviation of the averaged measurements. The list shows a part of the results, in another mix than the full data.

The chains behind the UniProt entries cited, without tags or fusion partners. Where a name states a change or a piece, a line headed by the entry shows the natural chain unless it says otherwise.
UniProt Q9UPP1: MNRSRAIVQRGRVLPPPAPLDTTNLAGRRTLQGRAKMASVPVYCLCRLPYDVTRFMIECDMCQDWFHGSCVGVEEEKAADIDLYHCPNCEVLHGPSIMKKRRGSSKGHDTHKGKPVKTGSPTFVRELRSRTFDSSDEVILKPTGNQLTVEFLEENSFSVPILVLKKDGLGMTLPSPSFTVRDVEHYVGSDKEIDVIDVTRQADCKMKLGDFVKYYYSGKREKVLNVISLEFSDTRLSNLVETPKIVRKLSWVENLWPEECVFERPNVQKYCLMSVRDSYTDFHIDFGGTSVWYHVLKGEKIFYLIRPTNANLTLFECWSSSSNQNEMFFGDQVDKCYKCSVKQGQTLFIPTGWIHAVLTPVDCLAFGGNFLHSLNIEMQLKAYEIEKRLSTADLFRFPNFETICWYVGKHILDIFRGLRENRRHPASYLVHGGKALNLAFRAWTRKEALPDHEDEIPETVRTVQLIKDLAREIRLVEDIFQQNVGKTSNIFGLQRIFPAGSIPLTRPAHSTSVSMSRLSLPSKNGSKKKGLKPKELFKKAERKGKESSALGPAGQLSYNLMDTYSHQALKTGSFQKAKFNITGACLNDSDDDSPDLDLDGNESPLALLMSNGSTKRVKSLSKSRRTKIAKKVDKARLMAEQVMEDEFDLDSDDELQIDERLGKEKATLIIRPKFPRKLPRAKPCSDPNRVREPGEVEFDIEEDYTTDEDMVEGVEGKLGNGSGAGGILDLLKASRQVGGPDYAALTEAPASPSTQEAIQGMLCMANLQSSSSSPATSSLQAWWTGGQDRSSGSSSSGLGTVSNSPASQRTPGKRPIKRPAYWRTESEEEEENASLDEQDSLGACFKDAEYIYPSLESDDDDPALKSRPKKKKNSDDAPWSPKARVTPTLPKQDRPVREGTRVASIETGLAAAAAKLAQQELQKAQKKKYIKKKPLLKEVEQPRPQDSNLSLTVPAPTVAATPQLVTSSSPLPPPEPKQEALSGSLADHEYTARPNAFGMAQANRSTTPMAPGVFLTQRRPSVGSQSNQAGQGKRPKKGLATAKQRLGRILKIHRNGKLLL
UniProt Q9UGJ1, whole entry: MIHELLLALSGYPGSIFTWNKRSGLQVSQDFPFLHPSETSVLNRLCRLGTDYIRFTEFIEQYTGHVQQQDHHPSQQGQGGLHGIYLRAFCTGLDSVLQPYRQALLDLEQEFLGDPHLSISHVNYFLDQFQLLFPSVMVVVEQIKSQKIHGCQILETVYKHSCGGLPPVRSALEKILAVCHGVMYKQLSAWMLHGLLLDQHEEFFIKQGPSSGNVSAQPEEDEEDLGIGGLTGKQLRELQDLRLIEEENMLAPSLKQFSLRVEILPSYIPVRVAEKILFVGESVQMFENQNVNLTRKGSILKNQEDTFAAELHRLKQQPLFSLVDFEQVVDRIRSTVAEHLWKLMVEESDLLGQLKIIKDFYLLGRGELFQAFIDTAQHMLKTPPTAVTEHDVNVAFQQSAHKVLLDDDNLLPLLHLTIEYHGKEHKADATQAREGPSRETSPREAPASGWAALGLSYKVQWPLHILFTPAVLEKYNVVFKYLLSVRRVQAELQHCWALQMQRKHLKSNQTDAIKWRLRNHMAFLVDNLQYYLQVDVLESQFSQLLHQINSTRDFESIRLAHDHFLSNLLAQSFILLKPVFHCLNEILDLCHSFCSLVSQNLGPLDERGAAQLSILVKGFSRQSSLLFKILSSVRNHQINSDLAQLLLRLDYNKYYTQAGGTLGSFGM
UniProt Q9UH62: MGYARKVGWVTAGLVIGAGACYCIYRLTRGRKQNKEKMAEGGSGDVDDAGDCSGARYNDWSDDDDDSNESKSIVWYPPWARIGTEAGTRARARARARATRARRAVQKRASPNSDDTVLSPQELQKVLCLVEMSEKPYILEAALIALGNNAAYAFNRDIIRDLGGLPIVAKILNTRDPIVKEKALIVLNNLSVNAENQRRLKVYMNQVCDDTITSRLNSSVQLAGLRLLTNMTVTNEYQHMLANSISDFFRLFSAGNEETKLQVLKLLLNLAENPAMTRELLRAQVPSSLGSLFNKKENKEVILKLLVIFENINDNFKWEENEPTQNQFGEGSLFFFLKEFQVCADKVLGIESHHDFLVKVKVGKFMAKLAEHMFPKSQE
UniProt Q9Y244: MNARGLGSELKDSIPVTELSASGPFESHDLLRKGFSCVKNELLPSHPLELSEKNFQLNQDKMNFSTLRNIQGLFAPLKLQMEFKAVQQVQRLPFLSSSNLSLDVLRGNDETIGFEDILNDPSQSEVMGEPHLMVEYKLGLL
UniProt Q9UJY4: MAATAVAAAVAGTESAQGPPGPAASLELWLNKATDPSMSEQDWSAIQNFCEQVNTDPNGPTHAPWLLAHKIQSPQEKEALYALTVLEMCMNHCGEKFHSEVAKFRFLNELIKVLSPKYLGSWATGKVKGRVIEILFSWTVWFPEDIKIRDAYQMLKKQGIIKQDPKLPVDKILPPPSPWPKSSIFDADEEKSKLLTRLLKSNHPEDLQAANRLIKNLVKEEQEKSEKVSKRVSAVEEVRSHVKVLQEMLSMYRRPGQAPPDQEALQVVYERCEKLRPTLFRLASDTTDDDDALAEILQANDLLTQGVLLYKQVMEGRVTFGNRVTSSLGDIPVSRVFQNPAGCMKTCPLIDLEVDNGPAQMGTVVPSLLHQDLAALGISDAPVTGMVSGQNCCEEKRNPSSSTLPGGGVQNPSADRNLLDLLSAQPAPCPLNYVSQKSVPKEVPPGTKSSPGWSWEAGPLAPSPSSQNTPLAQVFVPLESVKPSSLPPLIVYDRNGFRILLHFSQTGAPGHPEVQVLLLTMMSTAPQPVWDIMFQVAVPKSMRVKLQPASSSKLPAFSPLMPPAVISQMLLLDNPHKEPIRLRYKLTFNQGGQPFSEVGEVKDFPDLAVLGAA
UniProt Q9UBW7: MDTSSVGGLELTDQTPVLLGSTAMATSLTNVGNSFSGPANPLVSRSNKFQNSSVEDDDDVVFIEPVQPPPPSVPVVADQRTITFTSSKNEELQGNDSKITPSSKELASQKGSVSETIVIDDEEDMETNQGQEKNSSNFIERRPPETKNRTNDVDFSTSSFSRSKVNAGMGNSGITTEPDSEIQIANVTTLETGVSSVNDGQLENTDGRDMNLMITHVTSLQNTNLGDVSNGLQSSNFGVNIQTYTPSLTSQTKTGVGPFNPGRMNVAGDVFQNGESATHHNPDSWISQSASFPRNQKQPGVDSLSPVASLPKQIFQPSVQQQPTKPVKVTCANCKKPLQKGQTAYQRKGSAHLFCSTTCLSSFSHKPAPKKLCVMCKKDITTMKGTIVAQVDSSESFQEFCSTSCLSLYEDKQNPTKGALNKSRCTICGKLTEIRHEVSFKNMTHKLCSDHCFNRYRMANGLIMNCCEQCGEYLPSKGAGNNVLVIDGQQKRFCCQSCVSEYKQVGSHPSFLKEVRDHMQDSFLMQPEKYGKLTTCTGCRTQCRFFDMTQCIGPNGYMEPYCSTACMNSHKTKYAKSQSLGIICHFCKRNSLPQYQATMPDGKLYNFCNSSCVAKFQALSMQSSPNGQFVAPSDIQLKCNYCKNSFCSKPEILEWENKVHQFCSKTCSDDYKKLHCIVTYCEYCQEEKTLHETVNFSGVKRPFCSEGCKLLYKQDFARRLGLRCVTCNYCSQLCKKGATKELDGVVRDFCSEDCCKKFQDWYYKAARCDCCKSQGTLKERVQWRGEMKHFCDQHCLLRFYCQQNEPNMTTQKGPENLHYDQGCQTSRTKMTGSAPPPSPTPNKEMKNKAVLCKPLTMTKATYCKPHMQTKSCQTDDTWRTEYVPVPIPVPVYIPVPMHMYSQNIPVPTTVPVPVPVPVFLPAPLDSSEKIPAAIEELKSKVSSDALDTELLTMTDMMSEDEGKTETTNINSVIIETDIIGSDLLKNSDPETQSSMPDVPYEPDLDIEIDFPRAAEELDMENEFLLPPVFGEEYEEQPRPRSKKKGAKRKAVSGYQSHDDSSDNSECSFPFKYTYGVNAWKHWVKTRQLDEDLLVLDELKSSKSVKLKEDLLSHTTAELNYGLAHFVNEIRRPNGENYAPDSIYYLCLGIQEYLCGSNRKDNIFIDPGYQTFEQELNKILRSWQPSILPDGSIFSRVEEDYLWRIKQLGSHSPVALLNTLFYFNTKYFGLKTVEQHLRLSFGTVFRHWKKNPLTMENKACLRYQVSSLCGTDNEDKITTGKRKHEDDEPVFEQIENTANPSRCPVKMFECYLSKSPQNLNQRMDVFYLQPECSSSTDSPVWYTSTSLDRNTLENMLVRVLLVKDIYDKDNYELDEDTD
UniProt Q9Y281, whole entry: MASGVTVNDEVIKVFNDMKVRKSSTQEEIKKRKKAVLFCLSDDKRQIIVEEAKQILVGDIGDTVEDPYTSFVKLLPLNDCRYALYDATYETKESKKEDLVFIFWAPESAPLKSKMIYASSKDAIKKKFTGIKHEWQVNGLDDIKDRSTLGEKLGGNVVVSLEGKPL
UniProt Q9Y320, whole entry: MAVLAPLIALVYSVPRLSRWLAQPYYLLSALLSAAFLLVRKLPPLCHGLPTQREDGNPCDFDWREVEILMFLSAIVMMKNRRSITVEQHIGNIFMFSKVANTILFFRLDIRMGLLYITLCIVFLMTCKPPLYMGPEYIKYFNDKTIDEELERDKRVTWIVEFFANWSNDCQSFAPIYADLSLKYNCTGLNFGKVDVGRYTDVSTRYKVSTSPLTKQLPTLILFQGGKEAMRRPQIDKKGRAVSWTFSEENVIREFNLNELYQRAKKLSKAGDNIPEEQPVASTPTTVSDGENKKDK
UniProt Q9Y2G2: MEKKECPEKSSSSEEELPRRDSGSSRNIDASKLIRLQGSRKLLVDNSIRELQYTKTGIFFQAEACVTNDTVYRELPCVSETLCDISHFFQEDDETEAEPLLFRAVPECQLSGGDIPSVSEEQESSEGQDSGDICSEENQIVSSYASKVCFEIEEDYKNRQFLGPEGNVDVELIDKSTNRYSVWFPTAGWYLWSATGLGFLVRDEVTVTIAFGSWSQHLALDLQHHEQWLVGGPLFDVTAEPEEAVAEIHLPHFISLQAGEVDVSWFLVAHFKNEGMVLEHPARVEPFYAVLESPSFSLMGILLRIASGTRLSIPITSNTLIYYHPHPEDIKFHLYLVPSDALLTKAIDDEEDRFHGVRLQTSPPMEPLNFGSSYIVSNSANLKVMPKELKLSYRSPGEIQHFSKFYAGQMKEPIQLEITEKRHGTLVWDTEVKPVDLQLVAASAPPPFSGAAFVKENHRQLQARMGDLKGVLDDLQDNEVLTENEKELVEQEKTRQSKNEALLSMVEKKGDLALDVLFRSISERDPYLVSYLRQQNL
UniProt Q9UNY4: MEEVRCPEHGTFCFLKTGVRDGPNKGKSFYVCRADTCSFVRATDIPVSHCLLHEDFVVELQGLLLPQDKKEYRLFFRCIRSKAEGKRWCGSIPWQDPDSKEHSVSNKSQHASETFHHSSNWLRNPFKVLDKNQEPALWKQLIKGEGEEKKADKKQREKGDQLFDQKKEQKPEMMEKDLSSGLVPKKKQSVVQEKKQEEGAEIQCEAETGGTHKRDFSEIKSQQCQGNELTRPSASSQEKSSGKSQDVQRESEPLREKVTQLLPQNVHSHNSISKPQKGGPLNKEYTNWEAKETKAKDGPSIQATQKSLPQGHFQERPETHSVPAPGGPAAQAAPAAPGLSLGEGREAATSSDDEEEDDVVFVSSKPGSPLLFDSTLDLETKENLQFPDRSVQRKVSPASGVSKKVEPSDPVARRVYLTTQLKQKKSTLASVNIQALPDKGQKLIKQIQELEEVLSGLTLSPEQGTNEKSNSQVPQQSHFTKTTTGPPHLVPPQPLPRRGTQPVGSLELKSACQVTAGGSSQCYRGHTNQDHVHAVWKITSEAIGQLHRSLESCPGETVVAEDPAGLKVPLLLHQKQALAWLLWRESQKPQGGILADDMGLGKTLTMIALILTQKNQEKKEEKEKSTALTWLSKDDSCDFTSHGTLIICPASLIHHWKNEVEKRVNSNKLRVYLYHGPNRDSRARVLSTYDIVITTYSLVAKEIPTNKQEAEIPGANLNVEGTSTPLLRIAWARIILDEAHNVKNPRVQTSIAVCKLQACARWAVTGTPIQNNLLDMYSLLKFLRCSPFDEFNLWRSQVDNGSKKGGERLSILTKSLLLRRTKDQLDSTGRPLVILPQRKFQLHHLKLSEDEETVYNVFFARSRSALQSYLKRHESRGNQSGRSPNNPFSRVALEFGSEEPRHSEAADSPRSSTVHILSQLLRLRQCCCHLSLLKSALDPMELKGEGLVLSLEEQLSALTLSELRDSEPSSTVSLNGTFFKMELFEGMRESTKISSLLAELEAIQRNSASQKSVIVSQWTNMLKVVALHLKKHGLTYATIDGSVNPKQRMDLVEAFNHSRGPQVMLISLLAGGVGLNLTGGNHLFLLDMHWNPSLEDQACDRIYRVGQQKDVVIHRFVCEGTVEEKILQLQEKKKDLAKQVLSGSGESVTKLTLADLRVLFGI

Compound: Nc1ncnc2c1ncn2[C@@H]1O[C@H](COP(=O)(O)OP(=O)(O)NP(=O)(O)O)[C@@H](O)[C@H]1O [adenylyl imidodiphosphate]
Experiment: NP40-soluble protein abundance relative to vehicle (solubility fold change) (ratio); higher = more soluble protein in presence of AMP-PNP
Outline: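 Jurkat crude lysate prepared with a Dounce homogeniser was treated at eight concentrations spanning 0.1 to 10 mM, 10 min at room temperature then 3 min at 37 °C. Solubilisation with 0.8% NP40 and benzonase and ultracentrifugation preceded TMT labelling of the supernatant for LC-MS/MS. Fold change against the detergent-processed vehicle was determined per replicate from vsn-normalised intensities, across three independent experiments.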

Target	NP40-soluble protein abundance (concentration: 1mM)	NP40-soluble protein abundance (concentration: 2mM)	NP40-soluble protein abundance (concentration: 4mM)	NP40-soluble protein abundance (concentration: 6mM)	NP40-soluble protein abundance (concentration: 8mM)	NP40-soluble protein abundance (concentration: 10mM)
UniProt Q9UL63 and related entries	0.984 ± 0.065	0.968 ± 0.061	0.994 ± 0.041	0.937 ± 0.085	0.934 ± 0.092	0.922 ± 0.12
UniProt Q9UIC8 and related entries	0.972 ± 0.024	0.928 ± 0.063	0.962 ± 0.037	0.91 ± 0.033	0.94 ± 0.012	0.89 ± 0.026
UniProt Q9UPP1 and related entries	1.04 ± 0.04	1.07 ± 0.093	1.04 ± 0.086	1.09 ± 0.077	1.09 ± 0.11	1.09 ± 0.13
UniProt Q9UGJ1 and related entries	1.01 ± 0.037	1.01 ± 0.024	1.04 ± 0.05	1 ± 0.028	1 ± 0.091	1.03 ± 0.08
UniProt Q9UKL6 and related entries	0.986 ± 0.033	0.962 ± 0.03	0.977 ± 0.014	1.003 ± 0.0098	0.9804 ± 0.0094	1.01 ± 0.051
YBX2 (UniProt Q9Y2T7)	1.02 ± 0.029	1.06 ± 0.013	1.02 ± 0.018	1.01 ± 0.029	1.01 ± 0.036	1.038 ± 0.0094
UniProt Q9Y291 and related entries	1.01 ± 0.015	1.02 ± 0.11	1 ± 0.1	0.994 ± 0.045	1 ± 0.078	0.997 ± 0.13
ARMCX3 (UniProt Q9UH62)	0.9719 ± 0.0081	0.991 ± 0.02	0.9997 ± 0.0099	1.04 ± 0.067	1.05 ± 0.038	1.07 ± 0.033
UTP11 (UniProt Q9Y3A2)	1.02 ± 0.026	1.04 ± 0.037	1.03 ± 0.025	1.05 ± 0.026	1.05 ± 0.018	1.08 ± 0.018
UniProt Q9UL40 and related entries	1.04 ± 0.017	1.06 ± 0.037	1.05 ± 0.036	1.11 ± 0.038	1.11 ± 0.049	1.15 ± 0.092
POMP (UniProt Q9Y244)	0.997 ± 0.06	1.02 ± 0.056	0.919 ± 0.045	0.947 ± 0.018	0.918 ± 0.011	0.902 ± 0.03
UniProt Q9Y2H6 and related entries	0.9978 ± 0.0022	1.04 ± 0.014	1.007 ± 0.01	0.988 ± 0.014	0.9858 ± 0.0089	1 ± 0.019
UniProt Q9ULL5-3	1.07 ± 0.052	1.02 ± 0.0094	1.018 ± 0.0083	1.011 ± 0.0056	1.03 ± 0.017	1.02 ± 0.018
UniProt Q9Y224	0.908 ± 0.057	1.01 ± 0.085	0.854 ± 0.056	0.839 ± 0.026	0.799 ± 0.03	0.763 ± 0.082
MINPP1 (UniProt Q9UNW1)	1.02 ± 0.015	1.01 ± 0.032	1.012 ± 0.0089	1.05 ± 0.053	1.03 ± 0.019	1.06 ± 0.039
UniProt Q9ULU4-11|Q9ULU4-19|Q9ULU4-7|A0A087WYS3|Q9ULU4-13|Q9ULU4-22|Q9ULU4-8|Q9ULU4-9	1.03 ± 0.042	1.07 ± 0.05	1.05 ± 0.021	1.05 ± 0.062	1.05 ± 0.024	1.12 ± 0.021
MED13 (UniProt Q9UHV7)	0.983 ± 0.019	0.99 ± 0.029	1.02 ± 0.021	1.08 ± 0.1	1.07 ± 0.13	1.03 ± 0.05
UniProt Q9UJY4 and related entries	1.01 ± 0.015	1.01 ± 0.065	0.973 ± 0.026	0.9748 ± 0.003	0.975 ± 0.029	0.999 ± 0.064
ZMYM2 (UniProt Q9UBW7)	1 ± 0.033	0.977 ± 0.06	0.988 ± 0.023	0.963 ± 0.07	0.929 ± 0.018	0.946 ± 0.047
CFL2 (UniProt Q9Y281)	0.985 ± 0.012	0.963 ± 0.024	1.01 ± 0.022	0.995 ± 0.044	1.03 ± 0.03	1.02 ± 0.023
UniProt Q9UK58 and related entries	0.9854 ± 0.0082	0.996 ± 0.029	0.97 ± 0.013	1.05 ± 0.086	0.995 ± 0.089	1.1 ± 0.046
UniProt Q9UBS8 and related entries	1.01 ± 0.039	0.981 ± 0.095	0.984 ± 0.038	0.981 ± 0.036	0.975 ± 0.015	0.972 ± 0.079
UniProt Q9UBS9-2|Q9UBS9	1 ± 0.046	0.99 ± 0.022	1 ± 0.033	1 ± 0.054	0.987 ± 0.039	1.02 ± 0.027
UniProt Q9Y320 and related entries	0.936 ± 0.038	0.89 ± 0.056	0.918 ± 0.036	0.952 ± 0.048	0.962 ± 0.04	0.95 ± 0.039
UniProt Q9Y2Q0 and related entries	0.994 ± 0.049	0.985 ± 0.026	0.9739 ± 0.0091	0.981 ± 0.014	0.963 ± 0.047	0.987 ± 0.041
UniProt Q9UNF0 and related entries	1.03 ± 0.02	1.07 ± 0.049	1.02 ± 0.053	1.032 ± 0.008	1.03 ± 0.029	1.04 ± 0.043
FAM8A1 (UniProt Q9UBU6)	0.975 ± 0.021	0.9965 ± 0.0065	0.987 ± 0.036	0.957 ± 0.03	0.968 ± 0.023	0.97 ± 0.015
UniProt Q9UL18	1.02 ± 0.011	0.979 ± 0.026	0.983 ± 0.011	1.02 ± 0.042	1.04 ± 0.017	1.03 ± 0.019
UniProt Q9Y2G2 and related entries	0.979 ± 0.033	0.999 ± 0.044	0.974 ± 0.041	0.974 ± 0.048	0.973 ± 0.044	0.992 ± 0.047
TTF2 (UniProt Q9UNY4)	1.07 ± 0.03	1.06 ± 0.025	1.06 ± 0.039	1.019 ± 0.0071	1.01 ± 0.026	1.03 ± 0.027

2 records picked at random from those above, as already listed:
Target	NP40-soluble protein abundance (concentration: 1mM)	NP40-soluble protein abundance (concentration: 2mM)	NP40-soluble protein abundance (concentration: 4mM)	NP40-soluble protein abundance (concentration: 6mM)	NP40-soluble protein abundance (concentration: 8mM)	NP40-soluble protein abundance (concentration: 10mM)
UniProt Q9Y224	0.908 ± 0.057	1.01 ± 0.085	0.854 ± 0.056	0.839 ± 0.026	0.799 ± 0.03	0.763 ± 0.082
POMP (UniProt Q9Y244)	0.997 ± 0.06	1.02 ± 0.056	0.919 ± 0.045	0.947 ± 0.018	0.918 ± 0.011	0.902 ± 0.03
